# Patent US12280121B2 (Immunome, Inc., priority 2021, dated 2025)
# Assay: general procedure: solution-phase peptide synthesis; N1-((ethylimino)methylene)-N3,N3-dimethylpropane-1,3-diamine hydrochloride
substance,measurement,setting,value
"(S)-benzyl 11-benzyl-3,6,9,12,15-pentaoxo-1-phenyl-2,18-dioxa-4,7,10,13,16-pentaazaicosan-20-oate",step yield,coupling step,34% yield
"(S)-10-benzyl-20-(4-(2,5-dioxo-2,5-dihydro-1H-pyrrol-1-yl)phenyl)-6,9,12,15,18-pentaoxo-3-oxa-5,8,11,14,17-pentaazaicosan-1-oic acid",conjugation yield,conjugation step,24% yield
"(S)-16-amino-10-benzyl-6,9,12,15-tetraoxo-3-oxa-5,8,11,14-tetraazahexadecan-1-oic acid",step yield,late stage modification step,58% yield
